These are yes or no findings as the source states them, for the method shown. Some results given as binding are weak or reduced against the parent protein; the word gives no strength.
Assays:
[1] = biological target: BiP, endogenous protein of murine K46 B cells (mouse) (UniProt P20029); test: α-MZB1 Sepharose immunoprecipitation from K46 extracts, immunoblot (legend of FIG. 12)
[2] = biological target: BiP, endogenous protein of murine K46 B cells (mouse) (UniProt P20029); test: method not described at this place

Sequences of proteins named here, by UniProt entry; tags and fusion partners are left off. A change or cut given only in a name is not applied to a line headed by its entry. Residues count along the entry.
UniProt P20029, residues 20-655: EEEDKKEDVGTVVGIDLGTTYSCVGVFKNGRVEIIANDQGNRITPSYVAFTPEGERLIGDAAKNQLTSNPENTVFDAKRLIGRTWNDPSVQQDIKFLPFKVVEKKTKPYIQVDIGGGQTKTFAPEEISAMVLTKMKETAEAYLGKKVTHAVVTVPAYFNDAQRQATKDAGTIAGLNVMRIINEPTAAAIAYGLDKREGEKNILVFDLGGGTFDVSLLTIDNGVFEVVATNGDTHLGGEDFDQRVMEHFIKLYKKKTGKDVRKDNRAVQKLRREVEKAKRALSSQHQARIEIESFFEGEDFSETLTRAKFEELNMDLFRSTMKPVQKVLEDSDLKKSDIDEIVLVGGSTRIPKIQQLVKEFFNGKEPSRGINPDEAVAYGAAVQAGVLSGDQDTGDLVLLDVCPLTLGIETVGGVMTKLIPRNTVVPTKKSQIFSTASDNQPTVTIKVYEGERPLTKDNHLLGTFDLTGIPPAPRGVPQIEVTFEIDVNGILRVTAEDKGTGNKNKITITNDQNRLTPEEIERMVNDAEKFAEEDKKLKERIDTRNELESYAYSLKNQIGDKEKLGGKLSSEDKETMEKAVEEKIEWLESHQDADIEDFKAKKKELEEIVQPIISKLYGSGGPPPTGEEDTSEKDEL
UniProt Q9D8I1: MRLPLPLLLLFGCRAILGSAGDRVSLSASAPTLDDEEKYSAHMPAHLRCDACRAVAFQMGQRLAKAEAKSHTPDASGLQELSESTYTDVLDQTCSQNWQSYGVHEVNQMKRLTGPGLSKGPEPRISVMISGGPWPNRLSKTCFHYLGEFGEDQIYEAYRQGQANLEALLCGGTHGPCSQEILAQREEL

- binding [1]: binds
- binding [2]: binds
Substance: MZB1 (marginal zone B1 B cell factor 1), endogenous protein of murine K46 mature B cells (from UniProt Q9D8I1 21-188)

Reference: patent US20110129476A1
